Values joined by “and” are separate entries in the source; they are usually repeats but may differ in a detail not shown here. Equal entries are not always repeated. The list shows a part of the results. Further columns of the screen follow, without active or inactive calls. Compounds called inactive in the main read-out are mostly missing here. The note in brackets gives the kind of curve behind each potency; many fits are weak.
Experiment: qHTS Assay for Modulators of Lamin A Splicing
Conditions: HeLa LMNA splicing GFP/RFP minigene ratio, 48 h
Procedure, shortened: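 Read-out is the ratio of GFP to DsRed2 object intensity, acquired by 488 nm laser-scanning cytometry on HeLa lamin A-EGFP minigene reporter cells. Compound incubation 48 hrs at 37 °C in Opti-MEM with 2% FBS; DMSO 0.5% final.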

[1] = measured here: RFP viability control channel
[2] = measured here: GFP splicing reporter channel

SMILES | AC50 [1] | AC50 [2]
O=C(c1ccccc1)c1ccc(OCC(O)CN2CCN(S(=O)(=O)N3CCCCC3)CC2)cc1 (stereo unspecified) | 14.1 µM [rising, partial curve] | 
Cc1ccccc1OCCSCc1nc2ccccc2[nH]1 | 31.6 µM [rising, single point] | 20 µM [rising, single point]
COc1ccc(N/C=C\C(=O)c2ccc3c(c2)OCO3)cc1OC |  | 11.2 µM [rising, partial curve]
Cc1ccc(NC(=O)OCCN2CCN(Cc3ccccc3)CCC2=O)cc1 | 14.1 µM [rising, single point] | 12.6 µM [rising, single point]
CCN(Cc1ccccc1)C(=O)c1ccc(CNS(=O)(=O)c2ccc(C)cc2)cc1 | 25.1 µM [rising, single point] | 12.6 µM [rising, single point]
O=C(c1csc2c1CCCC2)N1CCN(c2ccc(F)cc2)CC1 | 35.5 µM [rising, single point] | 35.5 µM [rising, single point]
CN(C(=O)COC(=O)c1ccccc1Nc1ccccc1)C1CCS(=O)(=O)C1 (stereo unspecified) |  | 0.251 µM [rising, full curve, poor fit]
O=C(Nc1ccc(F)cc1)N(Cc1cccs1)Cc1cc2cc3c(cc2[nH]c1=O)OCO3 |  | 5.62 µM [rising, partial curve, poor fit]
COc1ccc2c(c1)-c1nc(NC(=O)c3ccco3)sc1CC2 |  | 35.5 µM [rising, single point]
CCOC(=O)c1noc2ncnc(N(CCC(=O)OC)c3ccccc3)c12 |  | 0.0112 µM [falling, full curve]
CCOC(=O)c1noc2ncnc(Nc3ccc(C)c(F)c3)c12 | 2 µM [rising, full curve, poor fit] | 1.58 µM [rising, partial curve]
Cc1ccc(-c2cc(N)n3nc(-c4ccc(C)cc4)cc3n2)cc1 | 28.2 µM [falling, partial curve] and 22.4 µM [falling, partial curve, poor fit] | 14.1 µM [falling, partial curve] and 35.5 µM [falling, single point]
CC(Cc1cccs1)NC(=O)Nc1ccc(Cl)c(Cl)c1 (stereo unspecified) | 31.6 µM [rising, single point] | 
COc1ccc(NS(=O)(=O)c2ccc(NS(=O)(=O)c3ccc(C)cc3)cc2)nn1 | 35.5 µM [rising, single point] | 
Cc1noc2ncnc(Oc3ccc(Cl)cc3Cl)c12 | 15.8 µM [rising, partial curve] | 

4 entries from above, as comma-separated lines:
SMILES,AC50 [1],AC50 [2]
O=C(c1ccccc1)c1ccc(OCC(O)CN2CCN(S(=O)(=O)N3CCCCC3)CC2)cc1 (stereo unspecified),"14.1 µM [rising, partial curve]",
CN(C(=O)COC(=O)c1ccccc1Nc1ccccc1)C1CCS(=O)(=O)C1 (stereo unspecified),,"0.251 µM [rising, full curve, poor fit]"
O=C(Nc1ccc(F)cc1)N(Cc1cccs1)Cc1cc2cc3c(cc2[nH]c1=O)OCO3,,"5.62 µM [rising, partial curve, poor fit]"
CCOC(=O)c1noc2ncnc(N(CCC(=O)OC)c3ccccc3)c12,,"0.0112 µM [falling, full curve]"

— PubChem BioAssay AID1487 (National Center for Advancing Translational Sciences (NCATS), 2009)
